# Source: patent US6534079B1, “Passive space insect repellant strip” (priority 1999, dated 2003)
# At least one read-out could not be matched to a standard name with certainty.
# Test system: Aedes Aegypti female mosquitoes
# Experiment: Knockdown efficacy against mosquitoes in glass chamber
# Assay type: in vivo
# Conditions: Barex strips coated with 5 mg of each active, 20 min test period
# Procedure: Markings were made to identify the side to be treated with the active. Markings were also made to leave one inch spacing on either ends 12 and 14 of the strip 10 to enable handling. Intermediate solutions of the active in organic solvents were prepared. A micropipettor, calibrated to transfer a known amount of intermediate solution on to the strip, was used to dose the strip with the active. The solution, after transferring onto the strip 10, was made to wet a 2 inch by 8 inch area 16 between ends 12 and 14, and allowed to sit on the bench top until most of the solvent evaporated and the strips appeared dry (which took 15 minutes to 30 minutes). Strips 10 were then either folded twice and held together with a metal clip and kept in a glass jar or were wrapped in aluminum foil and kept in a sealed plastic bag. These were then stored in the refrigerator at −10° C. until further use.
# A Glass chamber (0.75 m×0.75 m×0.75 m) was used for the test and was maintained at 80° F. and 50% relative humidity. Three treated strips were placed on a card board tray covered with an aluminum foil and then transferred to the glass chamber. The strips were exposed in the chamber for three minutes to allow insecticide vapors build-up in the enclosed air. Strips were then quickly removed, folded and stored in the refrigerator. […]
smiles,measurement,setting,value
"CC1(C)[C@H](C=C(Cl)Cl)[C@H]1C(=O)OCc1c(F)c(F)cc(F)c1F [Transfluthrin, (IR-trans)-(2,3,5,6-tetrafluorophenyl)methyl 3-(2,2-dichoroethenyl)-2,2-dimethyl cyclopropane carboxylate]",KD50,,4.58 min
same,KD50,listed as transfluthrin,4.6 min
